Experimental data: US9421208B2, “Methods for the treatment of solid tumors” (Pharmacyclics LLC, priority 2013, dated 2016)
Some of these results come from one statement about several compounds together.

Test system: lung tumors in Grg1 transgenic mice
Experiment: Tumor development in Grg1 transgenic mouse model of non-small cell lung cancer
Type: in vivo
Conditions: mice treated from 2 to 3 months, compared to control group
Experimental: The aim of the experiment is to evaluate the effect of two drugs on tumor development in a mouse model of non-small cell lung cancer.
Grg1 transgenic mice were used to evaluate the drugs. Grg1 transgenic mice overexpress the Groucho-related gene 1 (Grg1). The mice develop lung tumors that resemble human non-small cell lung cancer. Tumors initiate at 1 month of age and progress to invasive adenocarcinoma by 8 months of age. The drugs were administered to 2 month-old mice or to 5 month-old mice, and mice were treated for 4 weeks. The former group is referred to as the 3 month samples and the latter as the 6 month samples.
Mice were bred to generate double transgenic (Grg1/Cre recombinase) mice on a CD1 background. Four groups of female double transgenic mice were established:
At least 8 mice in each group were treated at 2 months old and 8 mice in each group were treated at 5 months old. Treatments lasted 4 weeks, and mice were sacrificed at 3 months and 6 months. Therefore samples are referred to as 3 month samples or 6 month samples. […]
For quantitation of tumors, the total visible tumors on the lung surface were counted using a dissecting microscope. […] Alternate slides were H&E stained, and tumors were detected and counted using a dissecting microscope. Tumor diameter was measured using an inverted microscope and reticule.

Structure (SMILES)	reduction in tumor number
CN(C)Cc1c(C(=O)NCCOc2ccc(C(=O)NO)cc2)oc2ccccc12 [Abexinostat, 3-[(dimethylamino)methyl]-N-{2-[4-(hydroxycarbamoyl)phenoxy]ethyl}-1-benzofuran-2-carboxamide]	50-60%
C=CC(=O)N1CCC[C@@H](n2nc(-c3ccc(Oc4ccccc4)cc3)c3c(N)ncnc32)C1 [Ibrutinib, (R)-1-(3-(4-amino-3-(4-phenoxyphenyl)-1H-pyrazolo[3,4-d]pyrimidin-1-yl)piperidin-1-yl)prop-2-en-1-one]	50-60%
